The other results are listed elsewhere or left out.

Sequences of proteins named here, by UniProt entry; tags and fusion partners are left off. A change or cut given only in a name is not applied to a line headed by its entry.
UniProt Q05086: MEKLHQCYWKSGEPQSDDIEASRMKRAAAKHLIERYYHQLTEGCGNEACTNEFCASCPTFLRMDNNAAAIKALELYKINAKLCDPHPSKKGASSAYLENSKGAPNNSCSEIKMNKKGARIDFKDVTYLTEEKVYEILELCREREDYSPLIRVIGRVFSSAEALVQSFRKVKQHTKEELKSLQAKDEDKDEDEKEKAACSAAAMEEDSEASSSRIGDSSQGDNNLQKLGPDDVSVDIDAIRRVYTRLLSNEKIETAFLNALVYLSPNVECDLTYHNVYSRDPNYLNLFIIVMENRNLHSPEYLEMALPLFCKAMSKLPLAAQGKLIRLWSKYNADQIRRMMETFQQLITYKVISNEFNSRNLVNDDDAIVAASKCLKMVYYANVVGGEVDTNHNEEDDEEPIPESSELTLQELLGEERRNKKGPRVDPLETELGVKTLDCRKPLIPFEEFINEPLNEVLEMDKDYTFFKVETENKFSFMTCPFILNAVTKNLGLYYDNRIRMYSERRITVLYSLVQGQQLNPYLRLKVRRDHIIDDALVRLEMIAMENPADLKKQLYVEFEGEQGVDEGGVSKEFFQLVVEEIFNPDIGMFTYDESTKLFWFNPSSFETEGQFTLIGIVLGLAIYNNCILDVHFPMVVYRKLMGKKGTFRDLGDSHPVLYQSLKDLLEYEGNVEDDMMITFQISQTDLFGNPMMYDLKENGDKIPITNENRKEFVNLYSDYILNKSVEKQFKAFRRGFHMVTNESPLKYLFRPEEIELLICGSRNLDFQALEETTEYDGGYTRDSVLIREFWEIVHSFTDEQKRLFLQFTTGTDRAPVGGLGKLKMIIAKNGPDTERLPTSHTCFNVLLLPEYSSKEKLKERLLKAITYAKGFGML
UniProt Q53HC9: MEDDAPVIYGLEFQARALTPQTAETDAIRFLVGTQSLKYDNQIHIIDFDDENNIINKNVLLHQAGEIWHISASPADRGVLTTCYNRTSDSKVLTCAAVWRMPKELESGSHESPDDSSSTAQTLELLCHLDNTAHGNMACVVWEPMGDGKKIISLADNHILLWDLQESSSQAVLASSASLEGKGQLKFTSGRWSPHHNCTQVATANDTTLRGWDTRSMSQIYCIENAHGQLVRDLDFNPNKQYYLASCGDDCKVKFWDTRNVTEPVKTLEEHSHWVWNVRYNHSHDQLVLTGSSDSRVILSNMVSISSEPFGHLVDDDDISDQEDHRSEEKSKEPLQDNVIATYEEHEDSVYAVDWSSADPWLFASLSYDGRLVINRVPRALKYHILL
UniProt Q6DKK2: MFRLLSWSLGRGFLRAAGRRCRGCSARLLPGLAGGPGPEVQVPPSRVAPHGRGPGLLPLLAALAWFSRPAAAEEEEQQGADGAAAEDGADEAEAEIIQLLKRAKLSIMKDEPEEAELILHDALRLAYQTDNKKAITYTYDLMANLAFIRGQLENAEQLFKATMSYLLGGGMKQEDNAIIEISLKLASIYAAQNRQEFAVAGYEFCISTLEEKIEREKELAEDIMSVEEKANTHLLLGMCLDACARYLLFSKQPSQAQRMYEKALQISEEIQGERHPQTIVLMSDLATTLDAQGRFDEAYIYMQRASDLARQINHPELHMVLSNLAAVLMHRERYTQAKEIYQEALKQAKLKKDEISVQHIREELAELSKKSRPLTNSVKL
UniProt P41226: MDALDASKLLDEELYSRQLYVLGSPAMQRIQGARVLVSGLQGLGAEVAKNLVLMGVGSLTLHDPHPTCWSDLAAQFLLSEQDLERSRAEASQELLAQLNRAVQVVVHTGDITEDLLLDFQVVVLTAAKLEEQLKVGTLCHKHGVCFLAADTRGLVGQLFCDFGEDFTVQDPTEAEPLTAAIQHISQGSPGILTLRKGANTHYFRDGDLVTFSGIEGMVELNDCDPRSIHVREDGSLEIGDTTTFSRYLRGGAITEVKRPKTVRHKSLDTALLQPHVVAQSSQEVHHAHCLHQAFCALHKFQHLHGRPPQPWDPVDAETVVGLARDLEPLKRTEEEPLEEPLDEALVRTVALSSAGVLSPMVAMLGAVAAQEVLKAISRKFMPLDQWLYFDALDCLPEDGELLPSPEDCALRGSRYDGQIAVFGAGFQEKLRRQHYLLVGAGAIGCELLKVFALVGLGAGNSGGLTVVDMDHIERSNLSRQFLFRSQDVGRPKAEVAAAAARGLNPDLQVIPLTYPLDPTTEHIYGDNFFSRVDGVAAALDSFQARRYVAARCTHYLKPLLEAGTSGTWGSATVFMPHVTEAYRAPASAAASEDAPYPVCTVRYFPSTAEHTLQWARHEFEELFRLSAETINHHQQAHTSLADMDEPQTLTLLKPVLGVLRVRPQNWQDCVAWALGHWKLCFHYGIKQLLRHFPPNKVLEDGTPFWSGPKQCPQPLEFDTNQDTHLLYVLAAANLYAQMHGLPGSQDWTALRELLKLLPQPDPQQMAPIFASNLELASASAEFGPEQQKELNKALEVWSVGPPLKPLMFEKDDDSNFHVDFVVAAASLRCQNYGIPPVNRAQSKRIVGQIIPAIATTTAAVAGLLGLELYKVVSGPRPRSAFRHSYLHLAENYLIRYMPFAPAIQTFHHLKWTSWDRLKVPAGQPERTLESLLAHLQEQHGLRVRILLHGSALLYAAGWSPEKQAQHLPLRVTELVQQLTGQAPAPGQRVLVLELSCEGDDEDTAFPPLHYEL
UniProt P61088: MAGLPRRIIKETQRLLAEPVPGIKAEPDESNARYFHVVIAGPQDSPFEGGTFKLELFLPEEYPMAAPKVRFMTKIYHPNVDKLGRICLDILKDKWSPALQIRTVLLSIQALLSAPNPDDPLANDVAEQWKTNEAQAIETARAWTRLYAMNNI
UniProt Q9BZX2: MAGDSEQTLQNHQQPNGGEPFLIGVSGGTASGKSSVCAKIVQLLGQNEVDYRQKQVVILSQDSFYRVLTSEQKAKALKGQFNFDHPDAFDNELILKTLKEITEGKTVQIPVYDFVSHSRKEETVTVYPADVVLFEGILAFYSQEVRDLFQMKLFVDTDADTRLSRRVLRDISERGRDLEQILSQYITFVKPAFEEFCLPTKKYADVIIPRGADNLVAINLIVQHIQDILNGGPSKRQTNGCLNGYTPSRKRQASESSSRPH
UniProt Q9NRR5, whole entry: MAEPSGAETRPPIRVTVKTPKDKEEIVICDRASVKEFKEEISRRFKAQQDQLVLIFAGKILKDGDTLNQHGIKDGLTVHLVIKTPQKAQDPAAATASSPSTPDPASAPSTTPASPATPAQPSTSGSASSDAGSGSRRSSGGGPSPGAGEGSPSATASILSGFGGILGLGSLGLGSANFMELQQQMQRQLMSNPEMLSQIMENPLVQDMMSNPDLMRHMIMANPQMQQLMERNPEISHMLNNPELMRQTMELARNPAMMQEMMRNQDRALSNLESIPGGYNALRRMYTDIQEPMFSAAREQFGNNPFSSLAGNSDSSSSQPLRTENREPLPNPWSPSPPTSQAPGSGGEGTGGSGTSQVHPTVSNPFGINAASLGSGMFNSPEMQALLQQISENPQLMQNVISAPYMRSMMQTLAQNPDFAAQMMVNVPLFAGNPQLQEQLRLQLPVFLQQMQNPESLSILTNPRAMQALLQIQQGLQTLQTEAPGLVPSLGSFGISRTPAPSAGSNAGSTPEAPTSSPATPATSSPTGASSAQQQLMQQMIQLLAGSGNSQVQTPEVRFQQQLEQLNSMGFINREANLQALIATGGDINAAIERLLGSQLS
UniProt Q9UL33, whole entry: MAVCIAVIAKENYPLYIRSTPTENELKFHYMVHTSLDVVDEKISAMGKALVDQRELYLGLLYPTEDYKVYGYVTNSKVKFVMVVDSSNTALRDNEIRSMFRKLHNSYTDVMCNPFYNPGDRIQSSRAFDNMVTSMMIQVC
UniProt O94759, whole entry: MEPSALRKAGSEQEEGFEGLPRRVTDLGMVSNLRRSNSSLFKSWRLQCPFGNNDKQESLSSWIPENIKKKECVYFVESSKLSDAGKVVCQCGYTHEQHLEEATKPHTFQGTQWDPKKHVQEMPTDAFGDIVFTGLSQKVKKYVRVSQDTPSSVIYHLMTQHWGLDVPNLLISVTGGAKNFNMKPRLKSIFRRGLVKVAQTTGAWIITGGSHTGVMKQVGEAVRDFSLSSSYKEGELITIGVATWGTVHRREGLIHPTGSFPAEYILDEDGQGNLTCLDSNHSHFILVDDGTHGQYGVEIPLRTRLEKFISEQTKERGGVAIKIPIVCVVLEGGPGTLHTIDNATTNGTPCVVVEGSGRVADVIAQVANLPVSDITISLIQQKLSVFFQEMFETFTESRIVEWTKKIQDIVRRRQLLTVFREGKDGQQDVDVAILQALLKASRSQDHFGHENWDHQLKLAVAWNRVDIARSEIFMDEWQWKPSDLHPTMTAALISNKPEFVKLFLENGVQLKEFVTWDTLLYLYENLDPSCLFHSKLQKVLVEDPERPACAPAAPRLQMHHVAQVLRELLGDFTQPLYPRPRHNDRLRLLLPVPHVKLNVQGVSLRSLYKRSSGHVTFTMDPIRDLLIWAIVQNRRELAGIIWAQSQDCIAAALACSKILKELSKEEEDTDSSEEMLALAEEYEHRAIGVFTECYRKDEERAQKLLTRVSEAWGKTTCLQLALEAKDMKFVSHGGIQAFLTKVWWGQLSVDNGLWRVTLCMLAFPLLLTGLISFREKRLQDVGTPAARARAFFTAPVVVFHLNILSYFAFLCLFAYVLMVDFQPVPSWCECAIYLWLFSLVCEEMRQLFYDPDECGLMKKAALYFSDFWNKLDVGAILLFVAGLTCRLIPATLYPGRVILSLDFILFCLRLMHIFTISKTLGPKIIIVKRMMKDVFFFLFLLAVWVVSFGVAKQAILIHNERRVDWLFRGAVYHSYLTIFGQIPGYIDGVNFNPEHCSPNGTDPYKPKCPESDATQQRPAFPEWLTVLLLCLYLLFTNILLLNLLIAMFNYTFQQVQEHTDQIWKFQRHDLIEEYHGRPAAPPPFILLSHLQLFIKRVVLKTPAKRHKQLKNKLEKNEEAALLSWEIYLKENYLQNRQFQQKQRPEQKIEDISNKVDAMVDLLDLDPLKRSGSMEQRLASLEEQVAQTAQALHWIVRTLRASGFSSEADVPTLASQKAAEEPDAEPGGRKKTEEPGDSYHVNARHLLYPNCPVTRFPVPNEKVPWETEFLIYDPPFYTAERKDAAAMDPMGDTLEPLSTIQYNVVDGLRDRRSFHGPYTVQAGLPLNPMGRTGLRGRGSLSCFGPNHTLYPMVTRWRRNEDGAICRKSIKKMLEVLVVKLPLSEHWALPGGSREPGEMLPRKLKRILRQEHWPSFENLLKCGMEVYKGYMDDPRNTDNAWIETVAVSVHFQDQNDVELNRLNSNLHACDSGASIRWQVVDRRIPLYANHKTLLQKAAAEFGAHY
UniProt Q9ULT0: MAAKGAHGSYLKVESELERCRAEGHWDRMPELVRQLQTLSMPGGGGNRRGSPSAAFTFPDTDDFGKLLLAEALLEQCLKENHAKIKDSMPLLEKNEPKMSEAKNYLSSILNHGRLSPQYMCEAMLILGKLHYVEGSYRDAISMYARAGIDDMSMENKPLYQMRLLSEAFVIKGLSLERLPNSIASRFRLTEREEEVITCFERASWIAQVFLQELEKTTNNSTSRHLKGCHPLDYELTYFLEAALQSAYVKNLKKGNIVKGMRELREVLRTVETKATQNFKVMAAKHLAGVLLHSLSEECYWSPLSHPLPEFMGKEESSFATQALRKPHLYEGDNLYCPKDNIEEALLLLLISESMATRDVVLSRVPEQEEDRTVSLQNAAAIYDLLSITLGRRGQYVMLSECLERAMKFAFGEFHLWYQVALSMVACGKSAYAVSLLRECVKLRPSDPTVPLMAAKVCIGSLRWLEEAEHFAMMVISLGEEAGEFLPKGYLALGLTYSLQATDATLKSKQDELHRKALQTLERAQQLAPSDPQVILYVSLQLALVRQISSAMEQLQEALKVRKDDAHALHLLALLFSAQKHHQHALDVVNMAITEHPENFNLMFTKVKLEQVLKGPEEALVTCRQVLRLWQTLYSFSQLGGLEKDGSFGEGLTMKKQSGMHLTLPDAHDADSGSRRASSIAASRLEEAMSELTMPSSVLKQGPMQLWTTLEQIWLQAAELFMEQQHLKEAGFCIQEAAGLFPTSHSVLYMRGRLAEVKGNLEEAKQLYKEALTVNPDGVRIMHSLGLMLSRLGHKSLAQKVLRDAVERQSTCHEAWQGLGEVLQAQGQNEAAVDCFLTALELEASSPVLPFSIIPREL
UniProt Q9BSL1: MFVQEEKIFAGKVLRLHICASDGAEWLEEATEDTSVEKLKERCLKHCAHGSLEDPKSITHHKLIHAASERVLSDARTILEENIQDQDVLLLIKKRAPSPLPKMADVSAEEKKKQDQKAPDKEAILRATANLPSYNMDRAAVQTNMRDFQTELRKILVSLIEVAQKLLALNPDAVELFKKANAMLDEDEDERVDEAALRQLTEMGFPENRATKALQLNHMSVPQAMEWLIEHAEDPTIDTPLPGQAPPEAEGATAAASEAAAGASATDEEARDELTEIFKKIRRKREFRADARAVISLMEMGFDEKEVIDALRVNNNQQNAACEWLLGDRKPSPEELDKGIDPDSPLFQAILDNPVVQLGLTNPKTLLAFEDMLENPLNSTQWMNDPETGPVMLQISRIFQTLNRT

Compound in this assay: COc1ccc(Cn2ccc3ccc(C(=O)NO)cc32)cc1
Kind of assay: dose-dependent thermal stabilisation call (2D-TPP, DLPTP, 10% FDR) (binary (1 = stabilised)); higher = stabilised by the compound. To be noted: system: HL-60 intact cells; concentration range 0.04-10 µM.
Consider TSSC4 (UniProt Q9Y5U2), for which the “dose-dependent thermal stabilisation call” value was inactive: 0.

In the case of UBXN7 (UniProt O94888), the “dose-dependent thermal stabilisation call” value is inactive: 0.

Turning to TXNDC4 (UniProt Q9BS26), the “dose-dependent thermal stabilisation call” value was inactive: 0.

As to TRIM24 (UniProt O15164), the “dose-dependent thermal stabilisation call” value is inactive: 0.

As to UROS (UniProt P10746), the “dose-dependent thermal stabilisation call” value was inactive: 0.

Consider UAP1 (UniProt Q16222), for which the “dose-dependent thermal stabilisation call” value was inactive: 0.

For the target TUFM (UniProt P49411), the “dose-dependent thermal stabilisation call” value is inactive: 0.

In the case of TUBGCP5 (UniProt Q96RT8), the “dose-dependent thermal stabilisation call” value is inactive: 0.

In the case of TRRAP (UniProt Q9Y4A5), the “dose-dependent thermal stabilisation call” value is inactive: 0.

For UNC84B (UniProt Q9UH99), the “dose-dependent thermal stabilisation call” value is inactive: 0.

For UBE3A (UniProt Q05086), the “dose-dependent thermal stabilisation call” value is inactive: 0.

As for UNC93B1 (UniProt Q9H1C4), the “dose-dependent thermal stabilisation call” value is inactive: 0.

On to UBE2H (UniProt P62256), for which the “dose-dependent thermal stabilisation call” value is inactive: 0.

Take TRUB1 (UniProt Q8WWH5): the “dose-dependent thermal stabilisation call” value was inactive: 0.

For TSSC1 (UniProt Q53HC9), the “dose-dependent thermal stabilisation call” value is inactive: 0.

Regarding TTC19 (UniProt Q6DKK2), the “dose-dependent thermal stabilisation call” value is inactive: 0.

UBAP2 (UniProt Q5T6F2): the “dose-dependent thermal stabilisation call” value was inactive: 0.

With UBA7 (UniProt P41226), the “dose-dependent thermal stabilisation call” value is inactive: 0.

For UBA2 (UniProt Q9UBT2), the “dose-dependent thermal stabilisation call” value was inactive: 0.

USP34 (UniProt Q70CQ2): the “dose-dependent thermal stabilisation call” value is inactive: 0.

Turning to TUBA4A (UniProt P68366), the “dose-dependent thermal stabilisation call” value is inactive: 0.

For the target UBE2N (UniProt P61088), the “dose-dependent thermal stabilisation call” value is inactive: 0.

Take UCK2 (UniProt Q9BZX2): the “dose-dependent thermal stabilisation call” value was inactive: 0.

With UBQLN4 (UniProt Q9NRR5), the “dose-dependent thermal stabilisation call” value was inactive: 0.

On to TRAPPC2L (UniProt Q9UL33), for which the “dose-dependent thermal stabilisation call” value is inactive: 0.

With TRPM2 (UniProt O94759), the “dose-dependent thermal stabilisation call” value was inactive: 0.

Take UBR4 (UniProt Q5T4S7): the “dose-dependent thermal stabilisation call” value was inactive: 0.

Regarding UBE2J1 (UniProt Q9Y385), the “dose-dependent thermal stabilisation call” value was inactive: 0.

With UQCRC2 (UniProt P22695), the “dose-dependent thermal stabilisation call” value was inactive: 0.

Take TTRAP (UniProt O95551): the “dose-dependent thermal stabilisation call” value is inactive: 0.

Turning to TTC1 (UniProt Q99614), the “dose-dependent thermal stabilisation call” value is inactive: 0.

For the target TTK (UniProt P33981), the “dose-dependent thermal stabilisation call” value is inactive: 0.

With UHRF1BP1L (UniProt A0JNW5), the “dose-dependent thermal stabilisation call” value was inactive: 0.

As for UGCGL2 (UniProt Q9NYU1), the “dose-dependent thermal stabilisation call” value is inactive: 0.

As to TTC7A (UniProt Q9ULT0), the “dose-dependent thermal stabilisation call” value was inactive: 0.

As for UBAC1 (UniProt Q9BSL1), the “dose-dependent thermal stabilisation call” value was inactive: 0.

As for TXNDC11 (UniProt Q6PKC3), the “dose-dependent thermal stabilisation call” value was inactive: 0.

Regarding TRAPPC10 (UniProt P48553), the “dose-dependent thermal stabilisation call” value was inactive: 0.

Values taken from the supplement of paper PMC7666118.
